Experimental data as given in PMC8219688.
These are yes or no findings as the source states them, for the method shown. For some assays here: In cells and extracts the contact can be indirect. Some results given as binding are weak or reduced against the parent protein; the word gives no strength. For some assays here: Sequences can lack the tags named with a protein.

Amino acid sequences for entries named in this document (tags omitted).
UniProt P83887: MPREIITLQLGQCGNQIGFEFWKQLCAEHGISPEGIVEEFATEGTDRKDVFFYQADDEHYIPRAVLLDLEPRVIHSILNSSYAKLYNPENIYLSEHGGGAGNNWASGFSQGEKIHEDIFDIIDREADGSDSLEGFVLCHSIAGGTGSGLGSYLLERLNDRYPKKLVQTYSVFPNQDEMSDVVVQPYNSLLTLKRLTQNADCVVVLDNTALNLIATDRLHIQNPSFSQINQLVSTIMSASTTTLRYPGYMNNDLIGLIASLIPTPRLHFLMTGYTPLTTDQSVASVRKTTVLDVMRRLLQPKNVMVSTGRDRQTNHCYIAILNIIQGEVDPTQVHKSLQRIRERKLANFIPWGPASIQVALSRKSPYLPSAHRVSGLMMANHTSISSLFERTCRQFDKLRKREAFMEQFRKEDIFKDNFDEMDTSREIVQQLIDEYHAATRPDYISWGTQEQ
UniProt P12004: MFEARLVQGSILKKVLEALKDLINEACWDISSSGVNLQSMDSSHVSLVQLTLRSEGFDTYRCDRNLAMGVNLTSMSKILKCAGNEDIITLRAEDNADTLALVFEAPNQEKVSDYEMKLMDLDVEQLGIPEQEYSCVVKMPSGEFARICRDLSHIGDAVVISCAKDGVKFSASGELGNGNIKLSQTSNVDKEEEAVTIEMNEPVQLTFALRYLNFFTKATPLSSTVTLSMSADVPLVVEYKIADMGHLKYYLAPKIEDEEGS
UniProt P17918: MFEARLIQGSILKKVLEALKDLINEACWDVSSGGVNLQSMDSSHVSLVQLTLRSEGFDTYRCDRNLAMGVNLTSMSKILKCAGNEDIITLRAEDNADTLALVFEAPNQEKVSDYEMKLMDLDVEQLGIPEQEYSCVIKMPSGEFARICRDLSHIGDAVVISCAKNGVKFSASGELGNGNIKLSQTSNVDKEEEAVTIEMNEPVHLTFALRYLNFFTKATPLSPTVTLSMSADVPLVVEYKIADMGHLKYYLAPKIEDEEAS

Key:
[1] = molecular target: T1, GST-CDC25C^200–256 (human) (UniProt P30307); experiment: pull-down; GST-tagged proteins (500 ng) bound to glutathione Sepharose 4B beads, incubated 45 min at 4 °C with His-PCNA (500 ng) in 1 mL of 20 mM Tris pH 7.5, 0.1% Triton X-100, 1 mM MgCl2, 5 mM βME, 137 mM NaCl, 5% glycerol; two washes; western blot; both purified
T1 sequence: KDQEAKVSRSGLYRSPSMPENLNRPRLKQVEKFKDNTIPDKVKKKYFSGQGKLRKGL

[2] = molecular target: γ-tubulin 1 (endogenous, NIH3T3 cells) (mouse (endogenous in NIH3T3)) (UniProt P83887); experiment: co-IP; γ-tubulin immunoprecipitated with anti-γ-tubulin (mouse monoclonal T6557) from cytosolic and chromatin fractions (micrococcal nuclease, sonicated; 1% Triton X-100, 20 mM Tris pH 7.5, 150 mM NaCl) of NIH3T3 cells and of S phase-synchronized U2OS and MCF10A cells; western blot for PCNA

binding [1]	binding [2]	Substance
no binding (tested: 500 ng PCNA in 1 mL)		His6-tagged PCNA (from UniProt P12004 1-261)
	binds	proliferating cell nuclear antigen (endogenous, NIH3T3 cells) (from UniProt P17918 1-261)
